Results reported in patent US20100048710A1, “Methods and Compositions for Modulating Muscle Fat in Livestock” (priority 2006, published 2010).
At least one structure is not confirmed: it was looked up by name or label, or the drawing left a doubt.

Legend:
Assay type in all cases: cell-based
[1] = system: bovine clonal preadipocytes isolated from subcutaneous adipose tissue; test: GPDH activity (adipogenesis) in clonal bovine SC preadipocytes, 48 h treatment (Example 2, FIG. 1); conditions: 48 hours in differentiation media, IBU 100 μM, TGZ 40 μM, DEX 25 mM as printed, no other agent
[2] = system: bovine preadipocytes isolated from subcutaneous (SC) adipose tissue; test: GPDH activity in bovine SC preadipocytes, 48 h exposure to DEX and IBU (Example 3, FIG. 2); conditions: 25 nM DEX, P<0.001
[3] = system: bovine preadipocytes isolated from intramuscular (IM) adipose tissue; test: GPDH activity in bovine IM preadipocytes, 48 h exposure to DEX and IBU (Example 3, FIG. 2); conditions: 25 nM DEX, P<0.001

Structure (SMILES)	GPDH activity versus control, agent alone [1]	GPDH activity, effect of DEX [2]	GPDH activity, effect of DEX [3]
Cc1c(C)c2c(c(C)c1O)CCC(C)(COc1ccc(CC3SC(=O)NC3=O)cc1)O2 (stereo not shown) [TGZ, troglitazone]	enhanced GPDH activity over control	–	–
C[C@@H]1C[C@H]2[C@@H]3CCC4=CC(=O)C=C[C@]4(C)[C@@]3(F)[C@@H](O)C[C@]2(C)[C@@]1(O)C(=O)CO [DEX, dexamethasone]	increased GPDH activity significantly	enhanced GPDH activity	enhanced GPDH activity
